Some of the results follow. These are raw signals, not scaled to a control.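 First-pass screen: polymyxin B was added at a level that permeabilizes the Salmonella outer membrane while sparing the inner membrane. DMSO wells, with and without polymyxin B, defined maximum growth. Because plates differed from one another, each plate's data were ranked separately and the compounds with the lowest OD600 were carried forward as hits.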
Test system: Salmonella enterica serovar Typhimurium SL1344
Assay: bacterial growth OD600 after 18 h with compound and polymyxin B; higher = more bacterial growth (less inhibition)
Details: 50 µM, Mueller-Hinton broth

Cc1cc(C(=O)N2CCCC(CCc3c(F)cccc3F)C2)n(C)n1 (stereo unspecified)
bacterial growth OD600 (polymyxin B 0.75 µg/mL): 0.011

CN(Cc1cnccn1)c1ccc(-c2nc(Cc3ccccc3)no2)cn1
bacterial growth OD600 (polymyxin B 0.75 µg/mL): 0.717

CC(C)N1CCC(NCc2cccnc2N(C)Cc2ccccc2)CC1
bacterial growth OD600 (polymyxin B 1 µg/mL): 0.915

CN(CCc1ccccc1)C1(C(=O)NCc2nccn2C)Cc2ccccc2C1
bacterial growth OD600 (polymyxin B 0.75 µg/mL): 0.338

O=C(NCC1CCCN(C2CCN(Cc3ccccn3)CC2)C1)c1ccc2c(c1)OCO2 (stereo unspecified)
bacterial growth OD600 (polymyxin B 0.75 µg/mL): 0.97

CSCCNCc1c[nH]nc1-c1ccc(-c2ccccc2)cc1
bacterial growth OD600 (polymyxin B 1 µg/mL): 0.699

COC(=O)C(CCSC)NC(=O)CCc1nnc(-c2ccc(C)s2)o1 (stereo unspecified)
bacterial growth OD600 (polymyxin B 0.75 µg/mL): 0.816

CCOC(=O)C1(CCOC)CCN(Cc2cc(C)ccc2-n2cccn2)CC1
bacterial growth OD600 (polymyxin B 1 µg/mL): 0.806

CC(O)(COc1ccccc1)c1ccc2c(c1)CN(Cc1ccsc1)CCO2 (stereo unspecified)
bacterial growth OD600 (polymyxin B 0.75 µg/mL): 0.69

COc1cc(CN2CCOc3ccc(C(O)Cc4ccccc4)cc3C2)cc2c1OCO2 (stereo unspecified)
bacterial growth OD600 (polymyxin B 0.75 µg/mL): 0.694

Cc1ccccc1CCC1CCCN(C(=O)c2snnc2C)C1 (stereo unspecified)
bacterial growth OD600 (polymyxin B 0.75 µg/mL): 0.72

O=C(NC1CC(=O)N(Cc2cccc3ccccc23)C1)c1cnccn1 (stereo unspecified)
bacterial growth OD600 (polymyxin B 1 µg/mL): 0.959

Cc1ncsc1C(=O)N1CCC(C2CCN(c3ncccn3)CC2)C1 (stereo unspecified)
bacterial growth OD600 (polymyxin B 0.75 µg/mL): 0.947

CC1(C2CCN(C(=O)c3cc4ccccc4oc3=O)CC2)NC(=O)N(Cc2ccsc2)C1=O (stereo unspecified)
bacterial growth OD600 (polymyxin B 0.75 µg/mL): 0.815

CO[C@H]1[C@H](NC(=O)Cc2cccs2)c2ccccc2C12CCN(Cc1cc(C)c(O)c(C)c1)CC2
bacterial growth OD600 (polymyxin B 0.75 µg/mL): 0.832

CCC(=O)N1CCCC(C(=O)c2ccc(-c3ccccc3)cc2)C1 (stereo unspecified)
bacterial growth OD600 (polymyxin B 1 µg/mL): 0.471

Cc1cc(CN(C)C(=O)CC2(c3ccccc3)CC(=O)N(CCCOc3cccnc3)C2=O)on1 (stereo unspecified)
bacterial growth OD600 (polymyxin B 0.75 µg/mL): 0.852

COc1ccc(/C=C/C(=O)NC2CCCN(C3Cc4ccccc4C3)C2)cc1 (stereo unspecified)
bacterial growth OD600 (polymyxin B 0.75 µg/mL): 0.709

Cc1ccc(C(=O)N2CCC(n3nccc3NC(=O)C3CCOC3)CC2)cc1C (stereo unspecified)
bacterial growth OD600 (polymyxin B 1 µg/mL): 0.905

c1ccc(OCc2noc(CN3CCN(c4ccccn4)CC3)n2)cc1
bacterial growth OD600 (polymyxin B 1 µg/mL): 0.902

O=C(c1cc(COc2cccc(C(F)(F)F)c2)on1)N1CCCCO1
bacterial growth OD600 (polymyxin B 0.75 µg/mL): 0.006
